The data set deals with rats with ischemia-induced ARF. Kind of data set: Ischemia-induced acute renal failure (ARF) by bilateral renal artery occlusion: clearance studies, immunoblotting, immunocytochemistry. The format is in vivo, rat. The note with it: ARF + MSH group. For orientation: Immunoblotting shows a protein as a band on a membrane.
The mark [1] stands for this setting: Baseline period Day-1 (before operation).
The mark [2] stands for this setting: Baseline period Day-2 (before operation).

Take “α-melanocyte stimulating hormone [α-MSH]”: under setting [1], the Urine osmolality amounted to 1439 mosm/KgH2O, the Urine output is 2.16 mL/h/kg and the “Urine output (Table 5)” value came to 36 μl/mm/Kg. In addition, under setting [2], the Urine osmolality is given as 1602 mosm/KgH2O, the Urine output worked out at 2.1 mL/h/kg and the “Urine output (Table 5)” value was determined as 35 μl/mm/Kg.

Values taken from patent publication US20020037832A1, “Use of alpha-MSH and EPO for preventing or treating ischemic conditions” (priority 2000, published 2002).
